Experimental data taken from paper PMC11343739.
Results are given in words; binding and its absence hold for the method and conditions named. In cells and extracts the contact can be indirect. Some results given as binding are weak or reduced against the parent protein; the word gives no strength.

Sequences of proteins named here, by UniProt entry; tags and fusion partners are left off.
UniProt Q09472: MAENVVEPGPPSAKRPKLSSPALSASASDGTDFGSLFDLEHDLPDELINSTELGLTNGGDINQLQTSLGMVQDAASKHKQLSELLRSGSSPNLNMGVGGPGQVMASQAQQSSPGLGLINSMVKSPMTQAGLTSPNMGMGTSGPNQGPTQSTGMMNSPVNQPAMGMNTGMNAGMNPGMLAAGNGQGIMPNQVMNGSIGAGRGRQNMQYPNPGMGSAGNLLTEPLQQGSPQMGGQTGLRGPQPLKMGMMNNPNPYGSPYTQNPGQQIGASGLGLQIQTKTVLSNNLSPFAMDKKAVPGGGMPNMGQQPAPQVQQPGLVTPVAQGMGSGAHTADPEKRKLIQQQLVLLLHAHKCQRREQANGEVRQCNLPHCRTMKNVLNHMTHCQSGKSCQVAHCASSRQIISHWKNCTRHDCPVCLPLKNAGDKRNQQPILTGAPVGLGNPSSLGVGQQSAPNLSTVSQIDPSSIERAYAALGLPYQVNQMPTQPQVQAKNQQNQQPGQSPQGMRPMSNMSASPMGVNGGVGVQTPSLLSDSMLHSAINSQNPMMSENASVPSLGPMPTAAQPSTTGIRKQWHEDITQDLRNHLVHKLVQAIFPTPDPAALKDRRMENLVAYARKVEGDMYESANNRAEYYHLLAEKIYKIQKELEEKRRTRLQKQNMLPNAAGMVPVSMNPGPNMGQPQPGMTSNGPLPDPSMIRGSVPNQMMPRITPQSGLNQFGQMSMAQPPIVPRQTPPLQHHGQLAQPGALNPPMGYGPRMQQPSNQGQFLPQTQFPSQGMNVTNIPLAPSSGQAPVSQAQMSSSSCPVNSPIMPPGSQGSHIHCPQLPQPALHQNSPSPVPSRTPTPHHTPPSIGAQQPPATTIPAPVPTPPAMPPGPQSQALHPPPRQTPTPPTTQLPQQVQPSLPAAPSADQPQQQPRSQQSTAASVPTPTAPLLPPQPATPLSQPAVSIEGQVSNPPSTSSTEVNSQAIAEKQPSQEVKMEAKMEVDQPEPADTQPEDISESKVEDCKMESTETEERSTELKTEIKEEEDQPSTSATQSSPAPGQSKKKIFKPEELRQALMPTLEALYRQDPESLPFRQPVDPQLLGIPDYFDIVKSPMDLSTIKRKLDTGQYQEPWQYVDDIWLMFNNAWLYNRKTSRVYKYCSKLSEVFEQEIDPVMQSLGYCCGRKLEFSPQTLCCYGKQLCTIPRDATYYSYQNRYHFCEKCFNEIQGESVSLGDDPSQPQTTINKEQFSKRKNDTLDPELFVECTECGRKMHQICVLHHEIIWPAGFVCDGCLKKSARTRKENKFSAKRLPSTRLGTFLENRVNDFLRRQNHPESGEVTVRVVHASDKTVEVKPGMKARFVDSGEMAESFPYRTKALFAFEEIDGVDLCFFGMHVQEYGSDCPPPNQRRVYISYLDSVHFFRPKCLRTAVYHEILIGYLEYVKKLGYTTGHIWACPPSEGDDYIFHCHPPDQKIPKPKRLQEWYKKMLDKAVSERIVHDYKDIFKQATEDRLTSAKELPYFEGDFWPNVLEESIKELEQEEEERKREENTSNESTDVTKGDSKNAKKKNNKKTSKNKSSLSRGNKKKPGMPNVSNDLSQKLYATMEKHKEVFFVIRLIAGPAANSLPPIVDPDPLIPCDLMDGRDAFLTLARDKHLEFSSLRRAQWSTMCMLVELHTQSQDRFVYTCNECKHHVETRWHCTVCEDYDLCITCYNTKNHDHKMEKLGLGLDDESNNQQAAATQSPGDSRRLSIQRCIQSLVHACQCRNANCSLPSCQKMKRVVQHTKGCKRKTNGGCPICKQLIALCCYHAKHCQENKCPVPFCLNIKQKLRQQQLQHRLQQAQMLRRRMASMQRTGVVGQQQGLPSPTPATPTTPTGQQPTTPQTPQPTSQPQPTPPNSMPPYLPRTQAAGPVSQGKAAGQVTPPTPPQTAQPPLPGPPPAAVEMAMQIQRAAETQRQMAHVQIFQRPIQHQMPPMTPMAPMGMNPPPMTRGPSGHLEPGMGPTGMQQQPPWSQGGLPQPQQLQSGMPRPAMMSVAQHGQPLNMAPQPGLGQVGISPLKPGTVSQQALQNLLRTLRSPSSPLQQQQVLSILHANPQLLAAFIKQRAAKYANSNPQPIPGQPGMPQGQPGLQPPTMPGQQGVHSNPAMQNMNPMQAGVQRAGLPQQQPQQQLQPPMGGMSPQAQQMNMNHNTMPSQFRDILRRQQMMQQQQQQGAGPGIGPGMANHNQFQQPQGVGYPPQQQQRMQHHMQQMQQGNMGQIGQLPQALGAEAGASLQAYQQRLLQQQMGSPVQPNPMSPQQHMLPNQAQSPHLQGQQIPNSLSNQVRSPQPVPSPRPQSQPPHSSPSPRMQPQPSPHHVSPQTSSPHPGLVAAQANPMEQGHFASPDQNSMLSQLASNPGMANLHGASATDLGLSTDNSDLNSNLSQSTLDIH
UniProt P05549: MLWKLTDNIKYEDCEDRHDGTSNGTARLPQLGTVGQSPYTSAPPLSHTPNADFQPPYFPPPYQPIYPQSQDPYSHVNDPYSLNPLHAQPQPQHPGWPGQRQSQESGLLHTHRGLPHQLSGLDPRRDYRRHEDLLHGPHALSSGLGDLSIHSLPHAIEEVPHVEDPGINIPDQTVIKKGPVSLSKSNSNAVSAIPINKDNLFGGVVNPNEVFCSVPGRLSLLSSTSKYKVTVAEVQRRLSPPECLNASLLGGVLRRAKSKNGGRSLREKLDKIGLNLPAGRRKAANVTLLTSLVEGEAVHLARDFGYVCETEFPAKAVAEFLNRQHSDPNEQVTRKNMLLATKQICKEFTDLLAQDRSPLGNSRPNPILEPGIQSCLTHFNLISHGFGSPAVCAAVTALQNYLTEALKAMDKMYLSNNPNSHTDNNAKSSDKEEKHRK

Target: EP300 (human (endogenous in 786-O and Caki-1)) (UniProt Q09472)
Assay: co-IP; Co-IP of EP300 with TFAP2A and SP1 in 786-O and Caki-1 cells; which protein was precipitated is not told

In the case of TFAP2A (from UniProt P05549 1-437), the binding is reported as “binds”.
